The list does not hold the whole screen: it gathers tests that were run many times, whatever their T/C, doses with no T/C, and many T/C values between a quarter and a half above the control. Further doses and runs are listed elsewhere. T/C: endpoint of the treated group in % of that of the vehicle group. Some doses have a count of surviving animals in place of a T/C: the source files T/C as zero there, which appears to mark a toxic dose or a test without result, not a measured value. Some survivor counts are full or nearly so, which does not show that the dose was tolerated: the source hardly ever lists a survival T/C far under the control, and the zero likely stands for such cases as well. Survivors were counted at the toxicity check, usually on the fifth day, unless a day is given; later deaths do not show. Schedules are NCI's codes, read here as Q, the interval in days (D) or hours (H), X, the number of doses. Some schedules carry Z or #; the key to these is not given. For survival time, the PubChem record calls one and a half times the control and up active, and a quarter to a half above the control has no call in these data; cut-offs in other NCI protocols can differ. Some entries were tested several times; the values are given in rising order. Some T/C values are followed by the survivors on the day toxicity was checked, most often the fifth; without a count, all were alive then.
Tested on: L1210 leukemia ip in BDF1 mice, survival T/C
Assay: NCI In Vivo Anticancer Drug Screen. Data for tumor model L1210 Leukemia (intraperitoneal) in B6D2F1 (BDF1) mice
Conditions: higher T/C = longer survival

With `O=NN(CCCl)C(=O)NC1CCCCC1` the T/C (T/C endpoint: mean survival time, dose: 33.0 mg/kg/injection, schedule: Q01DX001 (iv), vehicle: saline) was 144 % of control, the T/C (T/C endpoint: mean survival time, dose: 37.5 mg/kg/injection, schedule: Q01DX001 (ip), vehicle: saline) was 143 % of control and the T/C (T/C endpoint: mean survival time, dose: 40.0 mg/kg/injection, schedule: Q01DX001 (ip), vehicle: saline) was 130 % of control [6 of 7 alive]. For the same compound, the T/C (T/C endpoint: mean survival time, dose: 40.0 mg/kg/injection, schedule: Q## X032 (ip), vehicle: carboxymethylcellulose (CMC), evaluated on day 46) was 189 [9 of 10 alive] and 415 % of control, the T/C (T/C endpoint: mean survival time, dose: 40.0 mg/kg/injection, schedule: Q## X032 (ip), vehicle: carboxymethylcellulose (CMC), evaluated on day 60) was 562 and 584 % of control and the T/C (T/C endpoint: mean survival time, dose: 50.0 mg/kg/injection, schedule: Q01DX001 (ip), vehicle: Klucel (hydroxypropylcellulose) (HPC), evaluated on day 30) was 242 and 279 % of control. For the same compound, the T/C (T/C endpoint: mean survival time, dose: 50.0 mg/kg/injection, schedule: Q01DX001 (ip), vehicle: Klucel (hydroxypropylcellulose) (HPC), evaluated on day 60) was 124 [9 of 10 alive] and 232 % of control, the T/C (T/C endpoint: mean survival time, dose: 50.0 mg/kg/injection, schedule: Q01DX001 (ip), vehicle: carboxymethylcellulose (CMC), evaluated on day 45) was 424, 434, 448, 468, 517 % of control and the T/C (T/C endpoint: mean survival time, dose: 50.0 mg/kg/injection, schedule: Q01DX001 (ip), vehicle: carboxymethylcellulose (CMC), evaluated on day 46) was 608 % of control. For the same compound, the T/C (T/C endpoint: mean survival time, dose: 50.0 mg/kg/injection, schedule: Q01DX001 (ip), vehicle: carboxymethylcellulose (CMC), evaluated on day 60) was 486, 718, 879 % of control, the T/C (T/C endpoint: mean survival time, dose: 50.0 mg/kg/injection, schedule: Q01DX001 (ip), vehicle: carboxymethylcellulose (CMC), run until all animals had died) was 236, 298, 306, 318, 320, 349, 370, 589 % of control and the survivor count (T/C endpoint: mean survival time, dose: 50.0 mg/kg/injection, schedule: Q01DX001 (ip), vehicle: clinical formulation) was 3 of 6. The T/C (T/C endpoint: mean survival time, dose: 50.0 mg/kg/injection, schedule: Q01DX005 (ip), vehicle: carboxymethylcellulose (CMC)) was 142 % of control, the survivor count (T/C endpoint: mean survival time, dose: 50.0 mg/kg/injection, schedule: Q03HX008 (ip), vehicle: carboxymethylcellulose (CMC)) was 9 of 10 and the T/C (T/C endpoint: mean survival time, dose: 50.0 mg/kg/injection, schedule: Q04DX003 (ip), vehicle: carboxymethylcellulose (CMC)) was 138 % of control. For the same compound, the T/C (T/C endpoint: mean survival time, dose: 50.0 mg/kg/injection, schedule: Q## X001 (ip), vehicle: carboxymethylcellulose (CMC), evaluated on day 45) was 567 % of control, the T/C (T/C endpoint: mean survival time, dose: 50.0 mg/kg/injection, schedule: Q## X001 (ip), vehicle: carboxymethylcellulose (CMC), evaluated on day 46) was 650 and 807 % of control and the T/C (T/C endpoint: mean survival time, dose: 50.0 mg/kg/injection, schedule: Q## X001 (ip), vehicle: carboxymethylcellulose (CMC), evaluated on day 99) was 351 % of control. For the same compound, the T/C (T/C endpoint: mean survival time, dose: 50.0 mg/kg/injection, schedule: Q## X001 (ip), vehicle: carboxymethylcellulose (CMC), run until all animals had died) was 498 % of control, the survivor count (T/C endpoint: mean survival time, dose: 62.0 mg/kg/injection, schedule: Q01DX Z (ip), vehicle: carboxymethylcellulose (CMC)) was 9 of 10 and the T/C (T/C endpoint: mean survival time, dose: 75.0 mg/kg/injection, schedule: Q01DX001 (ip), vehicle: carboxymethylcellulose (CMC), evaluated on day 45) was 384 % of control. The T/C (T/C endpoint: mean survival time, dose: 75.0 mg/kg/injection, schedule: Q01DX001 (ip), vehicle: carboxymethylcellulose (CMC), evaluated on day 46) was 127 % of control, the T/C (T/C endpoint: mean survival time, dose: 75.0 mg/kg/injection, schedule: Q01DX001 (ip), vehicle: carboxymethylcellulose (CMC), evaluated on day 60) was 115, 200, 546 % of control and the T/C (T/C endpoint: mean survival time, dose: 75.0 mg/kg/injection, schedule: Q01DX001 (ip), vehicle: carboxymethylcellulose (CMC), run until all animals had died) was 337 % of control. For the same compound, the survivor count (T/C endpoint: mean survival time, dose: 75.0 mg/kg/injection, schedule: Q01DX001 (ip), vehicle: clinical formulation) was 0 of 6, the T/C (T/C endpoint: mean survival time, dose: 75.0 mg/kg/injection, schedule: Q01DX001 (ip), vehicle: saline, evaluated on day 30) was 108 and 174 % of control and the T/C (T/C endpoint: mean survival time, dose: 75.0 mg/kg/injection, schedule: Q01DX001 (ip), vehicle: saline, run until all animals had died) was 133 and 148 % of control. For the same compound, the T/C (T/C endpoint: mean survival time, dose: 75.0 mg/kg/injection, schedule: Q## X015 (ip), vehicle: carboxymethylcellulose (CMC)) was 147 % of control, the survivor count (T/C endpoint: mean survival time, dose: 97.0 mg/kg/injection, schedule: Q01DX001 (oral), vehicle: carboxymethylcellulose (CMC)) was 10 of 10 and the T/C (T/C endpoint: mean survival time, dose: 100.0 mg/kg/injection, schedule: Q01DX001 (ip), vehicle: Klucel (hydroxypropylcellulose) (HPC), evaluated on day 30) was 111 and 223 % of control. For the same compound, the T/C (T/C endpoint: mean survival time, dose: 100.0 mg/kg/injection, schedule: Q01DX001 (ip), vehicle: Klucel (hydroxypropylcellulose) (HPC), evaluated on day 60) was 86 and 93 % of control, the survivor count (T/C endpoint: mean survival time, dose: 100.0 mg/kg/injection, schedule: Q01DX001 (ip), vehicle: carboxymethylcellulose (CMC)) was 10 of 10 and the survivor count (T/C endpoint: mean survival time, dose: 100.0 mg/kg/injection, schedule: Q01DX Z (ip), vehicle: carboxymethylcellulose (CMC)) was 4 of 6. The survivor count (T/C endpoint: mean survival time, dose: 100.0 mg/kg/injection, schedule: Q04DX003 (ip), vehicle: carboxymethylcellulose (CMC)) was 10 of 10, the survivor count (T/C endpoint: mean survival time, dose: 100.0 mg/kg/injection, schedule: Q07DX Z (ip), vehicle: carboxymethylcellulose (CMC)) was 3 of 6 and the T/C (T/C endpoint: mean survival time, dose: 112.0 mg/kg/injection, schedule: Q## X004 (ip), vehicle: carboxymethylcellulose (CMC)) was 136 % of control. For the same compound, the survivor count (T/C endpoint: mean survival time, dose: 113.0 mg/kg/injection, schedule: Q01DX001 (ip), vehicle: carboxymethylcellulose (CMC)) was 9 of 10, the survivor count (T/C endpoint: mean survival time, dose: 125.0 mg/kg/injection, schedule: Q01DX Z (ip), vehicle: carboxymethylcellulose (CMC)) was 7 of 10 and the T/C (T/C endpoint: mean survival time, dose: 144.0 mg/kg/injection, schedule: Q01DX001 (ip), vehicle: carboxymethylcellulose (CMC)) was 141 % of control. For the same compound, the survivor count (T/C endpoint: mean survival time, dose: 150.0 mg/kg/injection, schedule: Q01DX001 (ip), vehicle: carboxymethylcellulose (CMC)) was 10 of 10, the survivor count (T/C endpoint: mean survival time, dose: 150.0 mg/kg/injection, schedule: Q01DX Z (ip), vehicle: carboxymethylcellulose (CMC)) was 2 of 6 and the survivor count (T/C endpoint: mean survival time, dose: 168.0 mg/kg/injection, schedule: Q01DX001 (ip), vehicle: carboxymethylcellulose (CMC)) was 10 of 10. For the same compound, the survivor count (T/C endpoint: mean survival time, dose: 200.0 mg/kg/injection, schedule: Q01DX001 (ip), vehicle: carboxymethylcellulose (CMC)) was 8 of 10, the survivor count (T/C endpoint: mean survival time, dose: 200.0 mg/kg/injection, schedule: Q01DX Z (ip), vehicle: carboxymethylcellulose (CMC)) was 0 of 6 and the survivor count (T/C endpoint: mean survival time, dose: 200.0 mg/kg/injection, schedule: Q07DX Z (ip), vehicle: carboxymethylcellulose (CMC)) was 0 of 6. The survivor count (T/C endpoint: mean survival time, dose: 225.0 mg/kg/injection, schedule: Q01DX001 (ip), vehicle: carboxymethylcellulose (CMC)) was 10 of 10, the survivor count (T/C endpoint: mean survival time, dose: 288.0 mg/kg/injection, schedule: Q01DX001 (ip), vehicle: carboxymethylcellulose (CMC)) was 8 of 10 and the survivor count (T/C endpoint: mean survival time, dose: 400.0 mg/kg/injection, schedule: Q07DX Z (ip), vehicle: carboxymethylcellulose (CMC)) was 0 of 6. The survivor count (T/C endpoint: mean survival time, dose: 800.0 mg/kg/injection, schedule: Q01DX001 (ip), vehicle: carboxymethylcellulose (CMC)) was 0 of 6, the survivor count (T/C endpoint: mean survival time, dose: 800.0 mg/kg/injection, schedule: Q01DX001 (oral), vehicle: carboxymethylcellulose (CMC)) was 2 of 6 and the survivor count (T/C endpoint: mean survival time, dose: 800.0 mg/kg/injection, schedule: Q07DX Z (ip), vehicle: carboxymethylcellulose (CMC)) was 0 of 6. For the same compound, the T/C (T/C endpoint: median survival time, dose: 12.5 mg/kg/injection, schedule: Q01DX001 (oral), vehicle: Klucel (hydroxypropylcellulose) (HPC)) was 127 % of control, the T/C (T/C endpoint: median survival time, dose: 75.0 mg/kg/injection, schedule: Q01DX001 (oral), vehicle: Klucel (hydroxypropylcellulose) (HPC)) was 147 % of control and the T/C (T/C endpoint: median survival time, dose: 100.0 mg/kg/injection, schedule: Q01DX001 (ip), vehicle: saline with Tween-80, evaluated on day 7) was 129 % of control. The T/C (T/C endpoint: median survival time, dose: 100.0 mg/kg/injection, schedule: Q01DX001 (ip), vehicle: saline with Tween-80, evaluated on day 50) was 125 % of control and the survivor count (T/C endpoint: median survival time, dose: 100.0 mg/kg/injection, schedule: Q01DX001 (ip), vehicle: steroid suspending solution) was 7 of 8.

Source: PubChem BioAssay AID248 (DTP/NCI, 2004)
